Assay results taken from PMC3315481, “Phosphorylation of the Drosophila melanogaster RNA–Binding Protein HOW by MAPK/ERK Enhances Its Dimerization and Activity” (PLoS Genetics, 2012).
These are yes or no findings as the source states them, for the method shown. Binding seen in cells or lysates may run through a third protein. Some results given as binding are weak or reduced against the parent protein; the word gives no strength.

Target: Held Out Wings, long isoform, wild type (HOW(L)^WT) (Drosophila melanogaster) (UniProt O01367)
Test: co-IP; S2R+ cells co-transfected with GFP-fused and HA-tagged HOW(L) variants (or gfp with how(l)^WT-HA); lysis in 1% NP40 buffer (50 mM Tris pH 7.5, 100 mM NaCl); IP with mouse anti-GFP on protein A/G beads 1-2 h at 4°C; Western blot with anti-HOW; co-precipitated HA protein normalised to its crude level and to the precipitated GFP protein

B1: Held Out Wings, long isoform, wild type (HOW(L)^WT) (protein, UniProt O01367 1-405)
chain: MSVCESKAVVQQQLQQHLQQQAAAAVVAVAQQQQAQAQAQAQAQAQQQQQAPQVVVPMTPQHLTPQQQQQSTQSIADYLAQLLKDRKQLAAFPNVFTHVERLLDEEIARVRASLFQINGVKKEPLTLPEPEGSVVTMNEKVYVPVREHPDFNFVGRILGPRGMTAKQLEQETGCKIMVRGKGSMRDKKKEDANRGKPNWEHLSDDLHVLITVEDTENRATVKLAQAVAEVQKLLVPQAEGEDELKKRQLMELAIINGTYRDTTAKSVAVCDEEWRRLVAASDSRLLTSTGLPGLAAQIRAPAAAPLGAPLILNPRMTVPTTAASILSAQAAPTAAFDQTGHGMIFAPYDYANYAALAGNPLLTEYADHSVGAIKQQRRLATNREHPYQRATVGVPAKPAGFIEIQ
modifications: phosphorylated at least on one TP site (T59, T64) in unstimulated S2R+ cells
  binding: binds
